# Data reported in PMC7819943, “Rice protein-binding microarrays: a tool to detect cis-acting elements near promoter regions in rice”.
# Sequences of proteins named here, by UniProt entry; tags and fusion partners are left off.
# UniProt Q0JBA9, entry or part of it: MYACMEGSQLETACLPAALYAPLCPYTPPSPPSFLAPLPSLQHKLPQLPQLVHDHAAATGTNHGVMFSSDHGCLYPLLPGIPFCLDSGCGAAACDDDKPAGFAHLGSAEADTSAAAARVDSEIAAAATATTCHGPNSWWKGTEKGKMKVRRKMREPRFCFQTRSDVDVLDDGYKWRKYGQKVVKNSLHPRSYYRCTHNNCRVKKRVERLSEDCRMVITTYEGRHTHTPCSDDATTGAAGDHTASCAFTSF
# The other results are listed elsewhere or left out.
# Target: OsWRKY34 (Oryza sativa, UniProt Q0JBA9 1-250)
# Assay: protein-binding microarray (RPBM); PBS, 2% BSA, 51.3 ng/ul salmon testes DNA, 50 uM zinc acetate, 200 nM TF, 25 C, 1 h; high values mean tight binding
# Settings: protein: recombinant; tags: N-terminal polyhistidine and DsRed monomer fusion (pET32a); label: CyDye5-dUTP incorporated in the synthesized complementary strand; 3' TTTTT single-stranded linker to array surface; dsDNA, one strand shown
# Procedure, shortened: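 The binding signal is fluorescence intensity per array feature (arbitrary units). Readings came from an Axon 4000B scanner after a washed, 2% BSA-blocked, double-stranded custom Agilent array had been incubated for 1 h at 25 °C with 200 nM protein and 50 µM zinc acetate. The protein was a Ni–NTA-purified transcription factor fused N-terminally to polyhistidine and DsRed, expressed in E. coli BL21-CodonPlus.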
row,Sequence,binding signal
1,GGTTGCTGCTGCTGCTGCTGCGGCGCTGGGGTTAGGGTTTCGGAGTCACCTAGTGCAG,8790 fluorescence intensity (a.u.)
2,GTCTCGCGATTTTCATGTAAACTGTACAATTAGTTTTTGTCGGAGTCACCTAGTGCAG,9300 fluorescence intensity (a.u.)
3,GGTTGGTGGGTGTGGGCGTGTGGCAAAGCAGAGAGGCGGCCGGAGTCACCTAGTGCAG,8530 fluorescence intensity (a.u.)
4,ACAACTTGCCCAGTGTCCATAATATCGATCGCTTGTTCACCGGAGTCACCTAGTGCAG,10200 fluorescence intensity (a.u.)
5,AACCACCTGAATTTCGTCGAATTTTACCAATTCTGCTGAACGGAGTCACCTAGTGCAG,9120 fluorescence intensity (a.u.)
6,TCAAAACTTTTCTACACACACAAACTTTCAACTTTTCTATCGGAGTCACCTAGTGCAG,8170 fluorescence intensity (a.u.)
7,CAAATGGAGGCCCCTTTTAGATACGCTTCCTGTTACTTTCCGGAGTCACCTAGTGCAG,8710 fluorescence intensity (a.u.)
8,ACCTACGCATCGTCCAGACGCCCATACACGTATGCATACGCGGAGTCACCTAGTGCAG,9110 fluorescence intensity (a.u.)
9,ATCACCATGCCACATTTCTCACTCATTTCACACTCACACCCGGAGTCACCTAGTGCAG,12900 fluorescence intensity (a.u.)
10,CGTCGGAATGCTTCTTATCCATATATACCTTGTTCTCCAACGGAGTCACCTAGTGCAG,10300 fluorescence intensity (a.u.)
11,CGGTTCCTCAACACGCTCTTCACCATCGCGTGCCTGTACCCGGAGTCACCTAGTGCAG,9000 fluorescence intensity (a.u.)
12,GGGGTCACACAAGAGGGAGGGCAAATGTAGGTAAGATTGACGGAGTCACCTAGTGCAG,11400 fluorescence intensity (a.u.)
13,CGATCGCTTAGATTCCGCATCGTCCTTTTCACTATTTTTTCGGAGTCACCTAGTGCAG,11400 fluorescence intensity (a.u.)
14,GCTTGCACAGCACAACGCCCATCATCCTGGATCCCCGTCACGGAGTCACCTAGTGCAG,8390 fluorescence intensity (a.u.)
15,CAACCTCATTGGCTGCACCTCGTCCTCATCCGCCGCAATCCGGAGTCACCTAGTGCAG,10900 fluorescence intensity (a.u.)
16,CTTAAGTATATATATTTTTGTAGTGTCGTTTCACAAAACCCGGAGTCACCTAGTGCAG,8650 fluorescence intensity (a.u.)
17,GCTTGTTAGATCGCCTCGCTATGCTCCAATCTGCGCATCACGGAGTCACCTAGTGCAG,8580 fluorescence intensity (a.u.)
18,TCTTGTAATAGGATTCTTTGTTTGGTTTGCTTGTATTCTTCGGAGTCACCTAGTGCAG,10400 fluorescence intensity (a.u.)
19,GATTTTTTCGCATTGCCCACATTCTTATAGATGTTAATGACGGAGTCACCTAGTGCAG,10500 fluorescence intensity (a.u.)
20,AAGGTATTGGCTCTTACTACTTGGGTTCGAGATTTTCTAGCGGAGTCACCTAGTGCAG,9120 fluorescence intensity (a.u.)
21,CTTCTGCGTTCTACTTGATGGATCGGTTAGTCTCGTTAATCGGAGTCACCTAGTGCAG,8270 fluorescence intensity (a.u.)

row,Sequence,binding signal
1,ATTGATTTTGTTATTTTTACGCACAGACTCAAATACATTGCGGAGTCACCTAGTGCAG,8460 fluorescence intensity (a.u.)
2,GCGCCATAATATCATCGGTCGCGAGCTGAGCTCTCCCTCTCGGAGTCACCTAGTGCAG,8430 fluorescence intensity (a.u.)
3,GGGTTGTTGTAGAATCTTGTGGATCCACTTGGCAGGGTCTCGGAGTCACCTAGTGCAG,10000 fluorescence intensity (a.u.)
4,TCACCATATGAATGCATGCCGTGATCCAACTATCCTTCATCGGAGTCACCTAGTGCAG,9590 fluorescence intensity (a.u.)
5,GGGCTGTTGTGTGTGTGTTTTGCGACGTGCCGTGCTGGGCCGGAGTCACCTAGTGCAG,8290 fluorescence intensity (a.u.)
6,AGCGGAACCCTAGCTAGCTTCCTTGTGGTTTTGAGGGTTTCGGAGTCACCTAGTGCAG,10500 fluorescence intensity (a.u.)
7,TTTCCGCAGCAACGCACCGGGTTTCATCTAGTTTATTATTCGGAGTCACCTAGTGCAG,8450 fluorescence intensity (a.u.)
8,GTGCGCGACCGCCTCGGCCCGACCTCGCCTGCCTCTTCGTCGGAGTCACCTAGTGCAG,9400 fluorescence intensity (a.u.)
9,GAGGGTTTATTGTAGTCGTGGTTTTCACTTAGTTTTCTTTCGGAGTCACCTAGTGCAG,11400 fluorescence intensity (a.u.)
10,GTGGGGTTCATGGAGTGGTTGAACATTAGCAAACATCTTCCGGAGTCACCTAGTGCAG,8260 fluorescence intensity (a.u.)
11,AATACTACTCCTGATGAGTTTACATCCGTCGGTCTTTTTTCGGAGTCACCTAGTGCAG,9740 fluorescence intensity (a.u.)
12,GGCTGTCCCACTTTAGGTTATTTGTCGTCCGGTCTGAAATCGGAGTCACCTAGTGCAG,10100 fluorescence intensity (a.u.)
13,TGCACACCCGGCCTACCAGCCTCGCTCCCTTCCTCGCCGTCGGAGTCACCTAGTGCAG,8510 fluorescence intensity (a.u.)
14,AAATTGTACTACGAAAAAGTCAAACTACTTATAATATGAACGGAGTCACCTAGTGCAG,9800 fluorescence intensity (a.u.)
15,TCTCAGCCGTCGCCCCTCACACACGCACACACACTCTCTCCGGAGTCACCTAGTGCAG,9280 fluorescence intensity (a.u.)
16,GAAGACCCGATTGTTCCTTTCCTTCCAGATTGTCCACGCTCGGAGTCACCTAGTGCAG,8310 fluorescence intensity (a.u.)
17,TCACCACCACCATCACAACCCAATCCCAATCCAAACCACCCGGAGTCACCTAGTGCAG,8530 fluorescence intensity (a.u.)
18,TATTTTTGACCAGAGGGAGGGTTTTTTTTTTTTTGAGAGACGGAGTCACCTAGTGCAG,10300 fluorescence intensity (a.u.)
19,TTAAGGGGTATTTCTGTCTTTTCACGTTGTATTCATCTCACGGAGTCACCTAGTGCAG,10800 fluorescence intensity (a.u.)
20,GTAGATTTTACTCTGTTTTGTTGGTTGGATGGTCCAGTAACGGAGTCACCTAGTGCAG,8140 fluorescence intensity (a.u.)
21,TTGTCTTTTCTCTGCCTTGATCCAGTCCATTTCTTACAAACGGAGTCACCTAGTGCAG,12200 fluorescence intensity (a.u.)

# For convenience, some entries already given.
row,Sequence,binding signal
9,GAGGGTTTATTGTAGTCGTGGTTTTCACTTAGTTTTCTTTCGGAGTCACCTAGTGCAG,11400 fluorescence intensity (a.u.)
10,GTGGGGTTCATGGAGTGGTTGAACATTAGCAAACATCTTCCGGAGTCACCTAGTGCAG,8260 fluorescence intensity (a.u.)
11,AATACTACTCCTGATGAGTTTACATCCGTCGGTCTTTTTTCGGAGTCACCTAGTGCAG,9740 fluorescence intensity (a.u.)
